# Results from PubChem BioAssay (EPA / NIEHS).
# Inconclusive results, whose numbers are uncertain, are shown. A potency beside an inconclusive call is a rough fit, not a confirmed value.
# Experiment: TOX21_PR_LUC_Followup_Agonist_viability: Viability Assessment in the Tox21 HEK293 Progesterone Receptor (PR) Agonism Luciferase Follow-Up Assay (AID 2283941); active means hit-call score of the fitted dose curve at least 0.9, where 1 is the maximum; inconclusive means response in the unintended direction; inactive means score below 0.9;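 further: loss of signal means cytotoxicity so actives lower viability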
# Text: TOX21_PR_LUC_Followup is a secondary assay for specificity for the TOX21_PR_BLA_Agonist assay. To differentiate true PR agonists from cytotoxic substances, this follow up assay is multiplexed with a cell viability assay.TOX21_PR_LUC_Followup_Agonist_viability is an assay readout measuring cellular ATP content and detected with CellTiter-Glo Luciferase-coupled ATP quantitation.TOX21_PR_LUC_Followup_Agonist_viability used a type of viability reporter where loss-of-signal activity can be used to understand changes in the cell viability. Furthermore, this assay endpoint can be referred to as a secondary readout, because this assay has produced multiple assay endpoints where this one serves a viability function. To generalize the intended target to other relatable targets, this assay endpoint is annotated to the cell cycle intended target family, where the subfamily is cytotoxicity.
# Quality Control Precautions: Maintain cells below 85-90% confluence in culture medium. For assay purpose, the cells should be cultured in assay medium with 10% charcoal stripped FBS for 5 days with alternate day medium changed to fresh medium. Especially while in assay culture, the cells should not reach more than 85% confluence as they would become harder to detach if they reach over confluence.Assay Protocol: HEK293-PR-A-luc cells were dispensed at 3,000 cells/5 uL/well of culture medium into white wall/solid-bottom 1536-well plates using a Multidrop Combi (ThermoFisher Scientific, Waltham, MA) dispenser. After the assay plates were incubated at 37C and […] for 5 h, 23 nL of compounds dissolved in DMSO, positive controls or DMSO only was transferred to the assay plate by a Pintool station (Kalypsys, San Diego, CA). The plates were incubated at 37C and […] for 16 h. Then 4 uL of ONE-Glo reagent (Promega, Madison, WI) was added to each plate using a BioRAPTR Flying Reagent Dispenser (FRD) workstation (Beckman Coulter, Indianapolis, IN, USA) and luminescence was quantified on a ViewLux (PerkinElmer, Shelton, CT) plate reader after 30 min incubation at room temperature.
row,SMILES,AC50
1,C[C@@H]1C[C@H]2[C@@H]3CCC4=CC(=O)C=C[C@]4(C)[C@@]3(F)[C@@H](O)C[C@]2(C)[C@@]1(O)C(=O)COP(=O)(O)O,inconclusive: 21.7 µM
2,c1ccc2cc3c(ccc4ccccc43)cc2c1,inconclusive: 46.1 µM
3,CCc1c(C(=O)NN2CCCCC2)nn(-c2ccc(Cl)cc2Cl)c1-c1ccc(Br)cc1,inconclusive: 13.8 µM
